Test results published in PubChem BioAssay AID493014 (National Center for Advancing Translational Sciences (NCATS), 2011).
The list shows a part of the results. Shown are side measurements of this screen, not its main read-out; they come without a call. The list favours compounds with an active or inconclusive main result. Words in brackets tell the shape of the fitted curve; partial curves, single points and poor fits give uncertain potencies.

Assay: qHTS Assay to Find Inhibitors of Chronic Active B-Cell Receptor Signaling
Conditions: ABC-DLBCL IkBa-CBG/CBR reporter, luminescence ratio (green luciferase fused to IkBa over red control in TMD8 lymphoma cells), 4 h
Method in brief: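 Doxycycline induced both beetle luciferases in TMD8 lymphoma cells; IKK-driven degradation limits the IkappaBalpha-fused green signal, while red luminescence normalises for cell number and nonspecific effects. Compounds tested up to 46 uM, 4 hrs.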

[1] = measured here: CBR red luminescence, cell number
[2] = measured here: IkBa-CBG green luminescence

Row | Structure (SMILES) | AC50 [1] | AC50 [2]
1 | CCCn1nnc(NC(=O)c2cccc(OCC)c2)n1 | 0.517 µM [falling, full curve, poor fit] | 
2 | Cc1cc(N2CCOCC2)ccc1/C=C1\NC(=O)N(CC(=O)Nc2ccccc2C)C1=O | 2.91 µM [rising, single point] | 
3 | COc1ccccc1NC(=S)N/N=C/c1cccc(C)c1 | 5.17 µM [falling, partial curve] | 
4 | O=C(NNc1nc(N2CCOCC2)nc(N2CCOCC2)n1)Nc1ccc(Cl)cc1 | 7.94 µM [rising, partial curve, poor fit] | 
5 | Cc1cc(C)cc(NC(=O)CSc2nc3c(c(=O)n2C)SC(C)C3)c1 (stereo not drawn) | 6.51 µM [falling, single point] | 
6 | N#Cc1c(-c2ccccc2)nc(N2CCN(Cc3ccccc3)CC2)[nH]c1=O | 35.5 µM [falling, partial curve, poor fit] | 
7 | Cc1cccc(C2Nc3ccccc3C(=O)N2NC(=O)c2ccc([N+](=O)[O-])cc2)n1 (stereo not drawn) | 29.1 µM [rising, single point] | 
8 | Cc1nc(N/N=C/c2ccc(O)cc2O)cc(N2CCOCC2)n1 | 12.6 µM [falling, partial curve, poor fit] | 
9 | C[C@@H]1CN([C@@H](C)CO)C(=O)c2cccc(NC(=O)C3CCCCC3)c2O[C@@H]1CN(C)Cc1ccc(Cl)c(Cl)c1 | 20.6 µM [falling, single point] | 
10 | CC(C)CSc1nnc2c(n1)[nH]c1ccccc12 | 14.6 µM [falling, single point] | 
11 | C=C(C)COc1ccc(-c2n[nH]c(C)c2-c2ccccc2OC)c(O)c1 | 12.6 µM [rising, partial curve, poor fit] | 
12 | Cc1ccc(NC(=O)c2ccc(COc3ccccc3)o2)nc1 | 22.4 µM [falling, single point] | 
13 | Cc1ccc(C(=O)N/N=C(\CC(C)C)c2ccccc2)cc1 | 29.1 µM [falling, single point] | 23.1 µM [falling, single point]
14 | O=[N+]([O-])c1ccc(N/N=C/c2ccc(OCc3cccc4ccccc34)cc2)nc1 | 10 µM [rising, partial curve, poor fit] | 
15 | O=c1[nH]c(SCc2ccc(Cl)cc2)nc2ccccc12 | 4.47 µM [rising, partial curve, poor fit] | 
16 | CC(C)c1cc(NC(=O)CCl)on1 | 15.8 µM [falling, single point] | 
17 | Cc1cc(C=O)c(C)n1-c1ccc(NC2CCCCC2)c([N+](=O)[O-])c1 | 22.4 µM [falling, single point] | 
18 | COc1cccc(-c2cc(C(=O)NC3CCCCC3)no2)c1 | 0.708 µM [falling, full curve] | 
19 | COc1ccccc1C(=O)NCC(=O)N/N=C/c1ccncc1 | 20 µM [rising, single point] | 
20 | COc1ccc(C2c3ccc(O)cc3Oc3ncn(CCN4CCOCC4)c(=N)c32)cc1OC (stereo not drawn) | 35.5 µM [rising, single point] | 10 µM [falling, partial curve, poor fit]

Row | Structure (SMILES) | AC50 [1] | AC50 [2]
21 | CCc1ccc(CNC(=O)CN2C(=O)CSc3ccc(S(=O)(=O)N4CCOCC4)cc32)cc1 | 25.1 µM [rising, single point] | 
22 | COc1cc(C(=O)Nc2ccc3c(c2)CCN3C(C)=O)cc(OC)c1OC | 35.5 µM [rising, single point] | 22.4 µM [falling, single point]
23 | CCOC(=O)c1nc(NCCc2ccccc2)sc1C | 2.82 µM [rising, partial curve, poor fit] | 
24 | O=Cc1ccc(OCCCOc2cccc3cccnc23)cc1 | 25.1 µM [falling, single point] | 
25 | Clc1ccc(C[n+]2cc(-c3ccc(Cl)cc3)n3c2CCC3)cc1 | 6.31 µM [falling, partial curve] | 
26 | O=C(O)c1cc([N+](=O)[O-])ccc1NCc1ccccn1 | 13 µM [falling, partial curve] | 
27 | CC(=O)N1c2ccc3ccccc3c2C2C=CCC2C1c1ccc(Br)cc1 (stereo not drawn) | 13 µM [falling, partial curve, poor fit] | 
28 | Nc1cc(=O)[nH]c(SCc2csc(-c3ccccc3)n2)n1 | 9.2 µM [rising, partial curve] | 
29 | Cc1cc(SCC(=O)c2cccs2)n2nc(C)c(-c3ccc(Cl)cc3)c2n1 | 7.31 µM [rising, partial curve, poor fit] | 
30 | CC(C)c1ccc(CNc2ncc(Br)cn2)cc1 | 7.08 µM [rising, full curve, poor fit] | 
31 | CCOC(=O)c1nc2cc3n(c(CC(C)C)c-2c1C)CC(C)=C3C |  | 20.6 µM [rising, single point]
32 | Cc1cccc(C(=O)Nc2cccc(C(=O)N/N=C/c3cccc(C)n3)c2)c1 | 3.16 µM [falling, single point] | 
33 | CCOC(=O)c1cc(-c2ccccc2)n(CCC(=O)Nc2ccc(C(F)(F)F)cc2)c1C | 35.5 µM [falling, single point] | 
34 | O=C(NNc1nc2cc3c(cc2s1)OCO3)c1cccc(F)c1 | 20.6 µM [falling, single point] | 
35 | Cc1nn2c(NCCCn3ccnc3)cc(C(C)C)nc2c1-c1ccccc1 | 35.5 µM [falling, single point] | 
36 | Cc1nn(Cc2ccccc2Cl)c2sc(C(=O)OC3CCCC3=O)cc12 (stereo not drawn) | 3.16 µM [rising, partial curve, poor fit] | 
37 | CCN(C(=O)CSc1nnc(-c2ccco2)n1C)c1c(N)n(Cc2ccccc2)c(=O)[nH]c1=O | 4.11 µM [falling, partial curve, poor fit] | 
38 | [O-]/[N+](=C\c1ccc(F)cc1)c1ccccc1 | 29.1 µM [rising, single point] | 
39 | CC1CCN(S(=O)(=O)c2cccc(C(=O)NC3CCCC3)c2)CC1 | 35.5 µM [falling, partial curve, poor fit] | 
40 | CN(c1ncnc2c1c(-c1ccccc1)cn2-c1ccc(F)cc1)C1CCCCC1 | 35.5 µM [rising, single point] | 

Part of the list above, set out differently:

| Row | Structure (SMILES) | AC50 [1] | AC50 [2] |
| --- | --- | --- | --- |
| 33 | CCOC(=O)c1cc(-c2ccccc2)n(CCC(=O)Nc2ccc(C(F)(F)F)cc2)c1C | 35.5 µM [falling, single point] |  |
| 34 | O=C(NNc1nc2cc3c(cc2s1)OCO3)c1cccc(F)c1 | 20.6 µM [falling, single point] |  |
| 35 | Cc1nn2c(NCCCn3ccnc3)cc(C(C)C)nc2c1-c1ccccc1 | 35.5 µM [falling, single point] |  |
